Source: paper PMC6873818
These are yes or no findings as the source states them, for the method shown. Some results given as binding are weak or reduced against the parent protein; the word gives no strength.

Sequences of proteins named here, by UniProt entry; tags and fusion partners are left off.
UniProt P35601: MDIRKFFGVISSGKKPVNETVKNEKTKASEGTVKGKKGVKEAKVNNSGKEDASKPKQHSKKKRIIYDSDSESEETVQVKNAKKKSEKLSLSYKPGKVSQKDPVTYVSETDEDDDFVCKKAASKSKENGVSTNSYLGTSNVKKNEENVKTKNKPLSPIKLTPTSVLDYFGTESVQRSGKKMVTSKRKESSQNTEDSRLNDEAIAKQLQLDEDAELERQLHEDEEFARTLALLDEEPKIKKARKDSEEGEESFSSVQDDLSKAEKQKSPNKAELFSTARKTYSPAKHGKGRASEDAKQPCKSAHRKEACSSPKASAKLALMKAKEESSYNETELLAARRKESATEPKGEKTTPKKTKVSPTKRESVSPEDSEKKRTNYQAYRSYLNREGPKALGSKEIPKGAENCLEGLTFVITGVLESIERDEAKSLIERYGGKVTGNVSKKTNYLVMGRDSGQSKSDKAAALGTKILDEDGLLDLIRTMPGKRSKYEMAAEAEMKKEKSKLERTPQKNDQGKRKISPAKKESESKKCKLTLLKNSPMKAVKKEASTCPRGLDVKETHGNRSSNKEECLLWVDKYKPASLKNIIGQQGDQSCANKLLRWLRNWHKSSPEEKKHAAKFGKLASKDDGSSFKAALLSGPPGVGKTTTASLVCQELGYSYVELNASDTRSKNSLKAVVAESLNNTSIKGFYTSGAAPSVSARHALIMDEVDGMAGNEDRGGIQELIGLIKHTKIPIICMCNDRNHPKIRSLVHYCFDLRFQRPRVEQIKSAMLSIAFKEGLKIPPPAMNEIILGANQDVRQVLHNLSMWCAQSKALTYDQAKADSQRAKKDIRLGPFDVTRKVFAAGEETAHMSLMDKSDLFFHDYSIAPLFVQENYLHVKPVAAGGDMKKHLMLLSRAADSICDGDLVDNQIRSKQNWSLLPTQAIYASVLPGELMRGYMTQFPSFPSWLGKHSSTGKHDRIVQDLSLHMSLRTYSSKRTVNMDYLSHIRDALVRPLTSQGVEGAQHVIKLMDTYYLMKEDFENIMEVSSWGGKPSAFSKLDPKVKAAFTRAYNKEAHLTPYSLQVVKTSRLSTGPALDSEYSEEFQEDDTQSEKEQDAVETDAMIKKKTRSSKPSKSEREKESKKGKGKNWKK
UniProt Q9WUK4: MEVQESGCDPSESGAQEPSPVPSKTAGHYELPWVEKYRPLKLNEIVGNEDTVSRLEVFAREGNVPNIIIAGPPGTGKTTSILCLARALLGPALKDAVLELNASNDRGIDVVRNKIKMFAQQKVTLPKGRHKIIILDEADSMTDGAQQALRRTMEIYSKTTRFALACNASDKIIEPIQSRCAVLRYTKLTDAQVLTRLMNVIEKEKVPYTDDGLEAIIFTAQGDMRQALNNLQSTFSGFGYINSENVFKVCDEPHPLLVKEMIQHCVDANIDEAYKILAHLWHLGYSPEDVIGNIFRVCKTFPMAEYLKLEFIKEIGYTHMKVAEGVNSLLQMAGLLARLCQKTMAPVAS
UniProt Q8NFC6: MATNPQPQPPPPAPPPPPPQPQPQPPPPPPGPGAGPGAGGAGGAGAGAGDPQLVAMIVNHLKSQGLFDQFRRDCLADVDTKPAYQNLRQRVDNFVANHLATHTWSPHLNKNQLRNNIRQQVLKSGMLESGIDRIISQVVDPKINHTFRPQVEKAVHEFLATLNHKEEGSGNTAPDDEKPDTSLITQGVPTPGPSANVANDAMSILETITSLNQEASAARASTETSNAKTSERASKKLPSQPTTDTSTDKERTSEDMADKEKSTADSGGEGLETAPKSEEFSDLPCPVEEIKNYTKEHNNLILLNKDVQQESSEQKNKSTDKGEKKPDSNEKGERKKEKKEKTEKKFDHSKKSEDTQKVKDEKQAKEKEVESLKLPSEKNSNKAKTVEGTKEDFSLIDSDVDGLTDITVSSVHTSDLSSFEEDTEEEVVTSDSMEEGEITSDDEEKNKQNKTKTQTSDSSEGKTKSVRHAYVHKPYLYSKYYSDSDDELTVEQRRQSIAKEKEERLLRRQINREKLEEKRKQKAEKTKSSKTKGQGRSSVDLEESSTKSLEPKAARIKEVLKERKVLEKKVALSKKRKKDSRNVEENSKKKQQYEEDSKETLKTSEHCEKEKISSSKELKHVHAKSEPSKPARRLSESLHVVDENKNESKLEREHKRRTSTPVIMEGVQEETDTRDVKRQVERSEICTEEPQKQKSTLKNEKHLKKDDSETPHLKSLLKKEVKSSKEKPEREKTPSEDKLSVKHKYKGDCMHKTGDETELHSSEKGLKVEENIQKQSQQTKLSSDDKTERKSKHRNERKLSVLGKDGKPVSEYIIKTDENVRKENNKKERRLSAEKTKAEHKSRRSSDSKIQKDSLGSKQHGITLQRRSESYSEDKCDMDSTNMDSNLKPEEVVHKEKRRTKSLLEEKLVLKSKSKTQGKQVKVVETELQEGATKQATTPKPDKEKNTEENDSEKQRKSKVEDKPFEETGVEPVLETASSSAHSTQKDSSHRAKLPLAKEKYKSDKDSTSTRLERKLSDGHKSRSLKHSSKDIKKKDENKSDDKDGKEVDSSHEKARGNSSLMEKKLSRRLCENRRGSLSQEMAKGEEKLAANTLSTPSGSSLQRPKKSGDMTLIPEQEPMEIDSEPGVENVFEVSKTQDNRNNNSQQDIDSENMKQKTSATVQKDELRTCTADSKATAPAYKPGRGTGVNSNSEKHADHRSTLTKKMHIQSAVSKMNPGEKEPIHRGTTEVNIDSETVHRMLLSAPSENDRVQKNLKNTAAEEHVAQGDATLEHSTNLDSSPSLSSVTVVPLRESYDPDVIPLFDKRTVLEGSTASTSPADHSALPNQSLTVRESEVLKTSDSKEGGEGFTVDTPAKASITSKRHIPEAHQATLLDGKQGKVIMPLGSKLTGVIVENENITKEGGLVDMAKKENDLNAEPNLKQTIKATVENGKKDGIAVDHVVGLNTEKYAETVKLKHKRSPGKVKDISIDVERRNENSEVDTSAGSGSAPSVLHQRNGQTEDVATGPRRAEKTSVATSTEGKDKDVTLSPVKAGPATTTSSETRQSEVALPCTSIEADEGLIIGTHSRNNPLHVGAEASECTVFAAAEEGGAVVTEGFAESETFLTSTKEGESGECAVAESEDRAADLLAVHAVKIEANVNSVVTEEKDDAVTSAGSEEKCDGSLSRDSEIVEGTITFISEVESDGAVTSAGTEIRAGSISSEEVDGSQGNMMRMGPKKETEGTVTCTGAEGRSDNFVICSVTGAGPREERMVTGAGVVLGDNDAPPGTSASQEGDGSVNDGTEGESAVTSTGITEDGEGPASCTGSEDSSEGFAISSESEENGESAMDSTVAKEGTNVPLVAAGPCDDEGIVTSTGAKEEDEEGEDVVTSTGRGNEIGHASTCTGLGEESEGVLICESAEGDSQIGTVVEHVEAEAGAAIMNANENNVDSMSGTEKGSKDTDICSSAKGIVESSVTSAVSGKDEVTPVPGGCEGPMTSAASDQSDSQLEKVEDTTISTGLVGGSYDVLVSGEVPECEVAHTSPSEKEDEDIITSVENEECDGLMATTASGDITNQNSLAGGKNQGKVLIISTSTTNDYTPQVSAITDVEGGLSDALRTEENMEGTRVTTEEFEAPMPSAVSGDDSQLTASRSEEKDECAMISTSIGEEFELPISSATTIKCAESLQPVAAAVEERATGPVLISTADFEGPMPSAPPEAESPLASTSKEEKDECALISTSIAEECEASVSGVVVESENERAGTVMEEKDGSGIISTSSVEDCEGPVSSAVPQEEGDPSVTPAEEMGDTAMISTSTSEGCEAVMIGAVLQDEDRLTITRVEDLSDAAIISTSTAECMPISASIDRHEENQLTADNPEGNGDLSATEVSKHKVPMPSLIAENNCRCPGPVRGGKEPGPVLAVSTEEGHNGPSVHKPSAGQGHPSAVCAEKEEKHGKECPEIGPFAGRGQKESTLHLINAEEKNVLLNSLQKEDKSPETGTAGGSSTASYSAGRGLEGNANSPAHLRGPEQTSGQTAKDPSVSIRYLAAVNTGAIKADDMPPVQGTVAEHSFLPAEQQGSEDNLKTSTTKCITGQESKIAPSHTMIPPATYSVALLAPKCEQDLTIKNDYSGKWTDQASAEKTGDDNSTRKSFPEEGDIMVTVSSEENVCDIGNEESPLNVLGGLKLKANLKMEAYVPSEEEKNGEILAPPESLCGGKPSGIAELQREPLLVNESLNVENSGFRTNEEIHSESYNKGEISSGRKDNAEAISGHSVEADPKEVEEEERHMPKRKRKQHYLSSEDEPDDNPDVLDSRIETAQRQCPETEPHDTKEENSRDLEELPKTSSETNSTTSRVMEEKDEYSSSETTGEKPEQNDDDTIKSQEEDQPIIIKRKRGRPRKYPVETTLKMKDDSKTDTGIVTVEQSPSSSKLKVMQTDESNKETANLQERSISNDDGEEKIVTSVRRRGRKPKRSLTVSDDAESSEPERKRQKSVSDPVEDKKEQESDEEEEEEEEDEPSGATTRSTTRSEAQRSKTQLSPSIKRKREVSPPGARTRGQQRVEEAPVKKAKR
UniProt P35250: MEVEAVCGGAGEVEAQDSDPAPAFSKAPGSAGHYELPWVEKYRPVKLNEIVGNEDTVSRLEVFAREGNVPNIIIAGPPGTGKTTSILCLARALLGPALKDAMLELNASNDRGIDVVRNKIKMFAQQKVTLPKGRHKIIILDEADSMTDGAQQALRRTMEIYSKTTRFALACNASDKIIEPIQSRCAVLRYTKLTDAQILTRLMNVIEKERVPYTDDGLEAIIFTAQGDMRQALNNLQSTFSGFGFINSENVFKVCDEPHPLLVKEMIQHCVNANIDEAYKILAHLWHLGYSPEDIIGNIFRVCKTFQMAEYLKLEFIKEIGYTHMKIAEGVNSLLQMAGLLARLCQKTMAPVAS
UniProt Q9D0F6: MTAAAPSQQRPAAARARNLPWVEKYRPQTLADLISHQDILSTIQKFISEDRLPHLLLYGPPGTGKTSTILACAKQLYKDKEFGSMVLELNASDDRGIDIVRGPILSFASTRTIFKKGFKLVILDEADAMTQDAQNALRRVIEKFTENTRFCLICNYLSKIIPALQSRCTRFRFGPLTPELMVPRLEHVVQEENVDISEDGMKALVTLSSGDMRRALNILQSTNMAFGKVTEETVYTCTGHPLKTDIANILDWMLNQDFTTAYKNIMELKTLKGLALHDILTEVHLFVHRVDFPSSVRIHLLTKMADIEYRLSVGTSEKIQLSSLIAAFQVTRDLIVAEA
UniProt P35249: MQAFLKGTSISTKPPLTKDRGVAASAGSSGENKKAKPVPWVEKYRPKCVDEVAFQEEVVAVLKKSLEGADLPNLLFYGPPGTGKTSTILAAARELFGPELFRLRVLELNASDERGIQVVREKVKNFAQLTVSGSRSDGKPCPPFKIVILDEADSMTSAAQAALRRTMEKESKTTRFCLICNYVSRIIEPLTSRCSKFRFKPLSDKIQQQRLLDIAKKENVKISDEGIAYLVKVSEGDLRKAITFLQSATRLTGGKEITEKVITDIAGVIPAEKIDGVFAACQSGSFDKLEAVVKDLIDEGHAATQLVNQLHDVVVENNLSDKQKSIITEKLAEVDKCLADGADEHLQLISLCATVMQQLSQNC
UniProt Q15291: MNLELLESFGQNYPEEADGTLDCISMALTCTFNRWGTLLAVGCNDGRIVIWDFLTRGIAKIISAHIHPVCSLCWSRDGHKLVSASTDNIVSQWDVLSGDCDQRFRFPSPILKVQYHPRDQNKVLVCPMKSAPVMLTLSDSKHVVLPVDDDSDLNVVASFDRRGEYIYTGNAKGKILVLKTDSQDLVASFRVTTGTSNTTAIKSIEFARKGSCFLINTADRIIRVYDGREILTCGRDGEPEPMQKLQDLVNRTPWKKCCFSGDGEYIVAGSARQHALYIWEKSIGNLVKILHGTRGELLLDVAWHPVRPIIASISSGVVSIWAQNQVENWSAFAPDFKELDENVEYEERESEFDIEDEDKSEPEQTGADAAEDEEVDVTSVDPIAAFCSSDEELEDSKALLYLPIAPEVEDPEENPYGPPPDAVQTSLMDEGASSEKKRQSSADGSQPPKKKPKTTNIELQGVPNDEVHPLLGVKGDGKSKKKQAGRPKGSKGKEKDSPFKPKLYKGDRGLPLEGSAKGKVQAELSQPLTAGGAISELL
UniProt P40938: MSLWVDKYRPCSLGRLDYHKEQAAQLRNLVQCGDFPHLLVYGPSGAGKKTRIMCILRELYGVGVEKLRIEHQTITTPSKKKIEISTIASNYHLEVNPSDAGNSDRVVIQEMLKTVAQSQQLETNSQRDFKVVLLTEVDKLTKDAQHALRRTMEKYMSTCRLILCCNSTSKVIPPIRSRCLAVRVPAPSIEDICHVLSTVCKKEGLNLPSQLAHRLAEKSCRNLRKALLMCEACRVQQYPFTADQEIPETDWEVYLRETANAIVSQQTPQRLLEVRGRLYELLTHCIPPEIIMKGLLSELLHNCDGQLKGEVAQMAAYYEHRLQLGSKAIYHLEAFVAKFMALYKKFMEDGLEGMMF

Assays:
[1] = molecular target: T1, RFC1 (human) (human (endogenous in HEK293T)) (UniProt P35251); test: SEC; DIF-FRAC control sample (co-fractionation mass spectrometry): clarified HEK293T lysate without RNase A, native SEC on BioSep-SEC-s4000 in PBS pH 7.2, 50 fractions, proteins of each fraction identified by LC-MS/MS; co-elution of elution profiles
T1 sequence: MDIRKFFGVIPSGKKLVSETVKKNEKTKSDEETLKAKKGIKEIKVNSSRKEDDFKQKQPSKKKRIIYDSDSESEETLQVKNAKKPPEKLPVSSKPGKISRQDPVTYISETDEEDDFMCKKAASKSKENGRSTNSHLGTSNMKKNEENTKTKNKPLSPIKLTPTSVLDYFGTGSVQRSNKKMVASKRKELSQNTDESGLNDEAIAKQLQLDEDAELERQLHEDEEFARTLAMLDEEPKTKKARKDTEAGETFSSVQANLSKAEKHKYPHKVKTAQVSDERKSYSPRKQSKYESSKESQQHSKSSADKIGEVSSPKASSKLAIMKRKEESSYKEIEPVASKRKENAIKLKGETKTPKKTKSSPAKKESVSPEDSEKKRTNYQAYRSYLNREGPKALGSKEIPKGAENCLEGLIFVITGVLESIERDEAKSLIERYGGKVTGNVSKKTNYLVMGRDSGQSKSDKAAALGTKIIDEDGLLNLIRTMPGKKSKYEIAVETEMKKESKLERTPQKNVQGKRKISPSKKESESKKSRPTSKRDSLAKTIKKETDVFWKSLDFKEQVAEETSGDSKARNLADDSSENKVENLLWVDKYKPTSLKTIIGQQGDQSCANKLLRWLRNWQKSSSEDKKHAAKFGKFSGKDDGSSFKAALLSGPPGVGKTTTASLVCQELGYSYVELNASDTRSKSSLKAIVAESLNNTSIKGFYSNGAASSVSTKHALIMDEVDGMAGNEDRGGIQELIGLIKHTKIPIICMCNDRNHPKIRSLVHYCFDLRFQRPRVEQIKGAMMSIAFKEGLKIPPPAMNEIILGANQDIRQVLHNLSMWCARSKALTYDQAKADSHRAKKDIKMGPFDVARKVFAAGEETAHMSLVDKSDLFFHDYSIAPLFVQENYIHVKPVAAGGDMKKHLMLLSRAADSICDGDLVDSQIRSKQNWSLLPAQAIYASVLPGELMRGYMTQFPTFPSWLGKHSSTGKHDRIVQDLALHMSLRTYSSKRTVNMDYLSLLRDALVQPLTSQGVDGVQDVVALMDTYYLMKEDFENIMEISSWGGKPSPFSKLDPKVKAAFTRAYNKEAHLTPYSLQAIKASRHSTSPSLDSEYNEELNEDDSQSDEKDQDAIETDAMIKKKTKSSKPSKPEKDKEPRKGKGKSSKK

[2] = molecular target: RFC1 (mouse) (mouse (endogenous in J1 ES cells)) (UniProt P35601); test: SEC; DIF-FRAC control sample: mouse J1 ES cell lysate without RNase A, native SEC on BioSep-SEC-s4000 in PBS pH 7.2, fractions by LC-MS/MS; co-elution of elution profiles
[3] = molecular target: RFC2 (mouse) (mouse (endogenous in J1 ES cells)) (UniProt Q9WUK4); test: SEC; DIF-FRAC RNase A-treated sample: mouse J1 ES cell lysate with RNase A as for HEK293T, native SEC on BioSep-SEC-s4000 in PBS pH 7.2, fractions by LC-MS/MS; co-elution of elution profiles
[4] = molecular target: BOD1L1 (human (endogenous in HEK293T)) (UniProt Q8NFC6); test: SEC; DIF-FRAC RNase A-treated sample (co-fractionation mass spectrometry): clarified HEK293T lysate with RNase A (80 ug, 30 min, room temperature), native SEC on BioSep-SEC-s4000 in PBS pH 7.2, 50 fractions, proteins of each fraction identified by LC-MS/MS; co-elution of elution profiles
[5] = molecular target: BOD1L1 (human (endogenous in HEK293T)) (UniProt Q8NFC6); test: SEC; DIF-FRAC control sample (co-fractionation mass spectrometry): clarified HEK293T lysate without RNase A, native SEC on BioSep-SEC-s4000 in PBS pH 7.2, 50 fractions, proteins of each fraction identified by LC-MS/MS; co-elution of elution profiles
[6] = molecular target: RFC2 (human) (human (endogenous in HEK293T)) (UniProt P35250); test: SEC; DIF-FRAC RNase A-treated sample (co-fractionation mass spectrometry): clarified HEK293T lysate with RNase A (80 ug, 30 min, room temperature), native SEC on BioSep-SEC-s4000 in PBS pH 7.2, 50 fractions, proteins of each fraction identified by LC-MS/MS; co-elution of elution profiles
[7] = molecular target: T2, CAPRIN1 (human (endogenous in HEK293T)) (UniProt Q14444); test: SEC; DIF-FRAC control sample (co-fractionation mass spectrometry): clarified HEK293T lysate without RNase A, native SEC on BioSep-SEC-s4000 in PBS pH 7.2, 50 fractions, proteins of each fraction identified by LC-MS/MS; co-elution of elution profiles
T2 sequence: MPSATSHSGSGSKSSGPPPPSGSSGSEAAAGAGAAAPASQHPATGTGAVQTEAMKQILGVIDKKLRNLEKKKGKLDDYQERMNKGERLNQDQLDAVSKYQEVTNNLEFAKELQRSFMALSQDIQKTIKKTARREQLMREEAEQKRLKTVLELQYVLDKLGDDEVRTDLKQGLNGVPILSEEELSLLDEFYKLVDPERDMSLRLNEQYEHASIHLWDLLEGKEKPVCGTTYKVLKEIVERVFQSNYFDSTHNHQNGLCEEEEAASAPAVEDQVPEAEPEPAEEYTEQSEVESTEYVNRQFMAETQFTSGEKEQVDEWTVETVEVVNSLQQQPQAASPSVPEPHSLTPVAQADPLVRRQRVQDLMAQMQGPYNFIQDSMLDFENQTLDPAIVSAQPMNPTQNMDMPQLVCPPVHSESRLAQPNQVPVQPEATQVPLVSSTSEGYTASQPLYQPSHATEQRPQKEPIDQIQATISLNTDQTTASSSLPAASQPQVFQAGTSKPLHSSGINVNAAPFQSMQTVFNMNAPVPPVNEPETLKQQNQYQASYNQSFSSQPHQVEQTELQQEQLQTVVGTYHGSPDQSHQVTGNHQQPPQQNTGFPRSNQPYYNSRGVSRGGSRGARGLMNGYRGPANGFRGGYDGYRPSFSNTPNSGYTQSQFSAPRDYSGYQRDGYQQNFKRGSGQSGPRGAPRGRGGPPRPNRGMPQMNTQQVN

[8] = molecular target: T3, NIPSNAP1 (human (endogenous in HEK293T)) (UniProt Q9BPW8); test: SEC; DIF-FRAC RNase A-treated sample (co-fractionation mass spectrometry): clarified HEK293T lysate with RNase A (80 ug, 30 min, room temperature), native SEC on BioSep-SEC-s4000 in PBS pH 7.2, 50 fractions, proteins of each fraction identified by LC-MS/MS; co-elution of elution profiles
T3 sequence: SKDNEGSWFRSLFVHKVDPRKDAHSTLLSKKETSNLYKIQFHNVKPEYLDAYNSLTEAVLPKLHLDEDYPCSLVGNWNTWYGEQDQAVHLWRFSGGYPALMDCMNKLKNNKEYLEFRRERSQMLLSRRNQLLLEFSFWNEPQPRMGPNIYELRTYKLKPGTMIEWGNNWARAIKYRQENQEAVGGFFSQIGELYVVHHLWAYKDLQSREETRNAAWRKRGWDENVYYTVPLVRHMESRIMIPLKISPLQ

[9] = molecular target: T3, NIPSNAP1 (human (endogenous in HEK293T)); test: SEC; DIF-FRAC control sample (co-fractionation mass spectrometry): clarified HEK293T lysate without RNase A, native SEC on BioSep-SEC-s4000 in PBS pH 7.2, 50 fractions, proteins of each fraction identified by LC-MS/MS; co-elution of elution profiles

## RFC5 (human) (from UniProt P40937 1-340)
[1]
  binding: binds

## RFC3 (mouse) (from UniProt Q8R323 1-356)
[2]
  binding: binds
[3]
  binding: binds

## ASH2L (from UniProt Q9UBL3 1-628)
[4]
  binding: binds
[5]
  binding: binds

## RFC2 (mouse) (from UniProt Q9WUK4 1-349)
[2]
  binding: binds

## RFC5 (mouse) (from UniProt Q9D0F6 1-339)
[2]
  binding: binds
[3]
  binding: binds

## RFC4 (human) (from UniProt P35249 1-363)
[6]
  binding: binds
[1]
  binding: binds

## RFC2 (human) (from UniProt P35250 1-354)
[1]
  binding: binds

## SETD1A (from UniProt O15047 1-1707)
[4]
  binding: binds
[5]
  binding: binds

## RBBP5 (from UniProt Q15291 1-538)
[4]
  binding: binds
[5]
  binding: binds

## CXXC1 (from UniProt Q9P0U4 1-656)
[4]
  binding: binds
[5]
  binding: binds

## RFC3 (human) (from UniProt P40938 1-356)
[6]
  binding: binds
[1]
  binding: binds

## RFC4 (mouse) (from UniProt Q99J62 1-364)
[2]
  binding: binds
[3]
  binding: binds

B1: G3BP2 (protein, UniProt Q9UN86 1-482)
chain: MVMEKPSPLLVGREFVRQYYTLLNKAPEYLHRFYGRNSSYVHGGVDASGKPQEAVYGQNDIHHKVLSLNFSECHTKIRHVDAHATLSDGVVVQVMGLLSNSGQPERKFMQTFVLAPEGSVPNKFYVHNDMFRYEDEVFGDSEPELDEESEDEVEEEQEERQPSPEPVQENANSGYYEAHPVTNGIEEPLEESSHEPEPEPESETKTEELKPQVEEKNLEELEEKSTTPPPAEPVSLPQEPPKAFSWASVTSKNLPPSGTVSSSGIPPHVKAPVSQPRVEAKPEVQSQPPRVREQRPRERPGFPPRGPRPGRGDMEQNDSDNRRIIRYPDSHQLFVGNLPHDIDENELKEFFMSFGNVVELRINTKGVGGKLPNFGFVVFDDSEPVQRILIAKPIMFRGEVRLNVEEKKTRAARERETRGGGDDRRDIRRNDRGPGGPRGIVGGGMMRDRDGRGPPPRGGMAQKLGSGRGTGQMEGRFTGQRR
[7]
  binding: binds

B2: NIPSNAP2 (protein, UniProt O75323 24-286)
chain: CSLLPRLRTWTSSSNRSREDSWLKSLFVRKVDPRKDAHSNLLAKKETSNLYKLQFHNVKPECLEAYNKICQEVLPKIHEDKHYPCTLVGTWNTWYGEQDQAVHLWRYEGGYPALTEVMNKLRENKEFLEFRKARSDMLLSRKNQLLLEFSFWNEPVPRSGPNIYELRSYQLRPGTMIEWGNYWARAIRFRQDGNEAVGGFFSQIGQLYMVHHLWAYRDLQTREDIRNAAWHKHGWEELVYYTVPLIQEMESRIMIPLKTSPLQ
[8]
  binding: binds
[9]
  binding: binds

B3: NUFIP2 (protein, UniProt Q7Z417 1-695)
chain: MEEKPGQPQPQHHHSHHHPHHHPQQQQQQPHHHHHYYFYNHSHNHHHHHHHQQPHQYLQHGAEGSPKAQPKPLKHEQKHTLQQHQETPKKKTGYGELNGNAGEREISLKNLSSDEATNPISRVLNGNQQVVDTSLKQTVKANTFGKAGIKTKNFIQKNSMDKKNGKSYENKSGENQSVDKSDTIPIPNGVVTNNSGYITNGYMGKGADNDGSGSESGYTTPKKRKARRNSAKGCENLNIVQDKIMQQETSVPTLKQGLETFKPDYSEQKGNRVDGSKPIWKYETGPGGTSRGKPAVGDMLRKSSDSKPGVSSKKFDDRPKGKHASAVASKEDSWTLFKPPPVFPVDNSSAKIVPKISYASKVKENLNKTIQNSSVSPTSSSSSSSSTGETQTQSSSRLSQVPMSALKSVTSANFSNGPVLAGTDGNVYPPGGQPLLTTAANTLTPISSGTDSVLQDMSLTSAAVEQIKTSLFIYPSNMQTMLLSTAQVDLPSQTDQQNLGDIFQNQWGLSFINEPSAGPETVTGKSSEHKVMEVTFQGEYPATLVSQGAEIIPSGTEHPVFPKAYELEKRTSPQVLGSILKSGTTSESGALSLEPSHIGDLQKADTSSQGALVFLSKDYEIESQNPLASPTNTLLGSAKEQRYQRGLERNDSWGSFDLRAAIVYHTKEMESIWNLQKQDPKRIITYNEAMDSPDQ
[7]
  binding: binds
